Data as given in PubChem BioAssay AID504804 (Drosophila RNAi Screening Center, 2011).

Test: 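dsRNAs that improve Kc cell survival under doxorubicin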 (primary screen)
System: Drosophila Kc cells
Reagent: long dsRNA against Drosophila genes, 0.5 µg dsRNA per well
Timing: 96 h (48 h knock-down, then 48 h drug)
Conditions: doxorubicin 5 µg/ml for 48 h, added 48 h after dsRNA
Read-out: 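Viability measured as cellular ATP by luminescence after 48 h knock-down then 48 h doxorubicin at 5 µg/ml; unnormalised plate counts for each replicate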
Reading the numbers: raw ATP luminescence: higher = more viable cells, protection from doxorubicin
Call rule: 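Active when both duplicate wells lie at least 2 SD above the plate mean and protection is confirmed by rescreening and independent dsRNAs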
The deposit covers about 19,000 reagents; this is a random part of those that have a named target and a result. Of all reagents, 47 (0.25%) were called active. 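Signals are raw, not normalised; exact z-scores behind calls not deposited; actives needed confirmation, so some wells reaching 2 SD are inactive.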 A number with no mark means an inactive call. The numbers tell different reagents against one gene apart. No sequences are given here.

| gene | dsRNA no. | raw ATP luminescence, replicate 1 | raw ATP luminescence, replicate 2 |
| --- | --- | --- | --- |
| Sytalpha | 1 | 60673 | 75960 |
| Tti1 | 1 | 57190 | 60410 |
| Cyp9f3 | 1 | 57917 | 53467 |
| ND-B17 | 1 | 74623 | 84020 |
| CG43347 | 1 | 2.43e5 | 2.55e5 |
| CG43347 | 2 | 3.66e5 | 3.83e5 |
| prel | 1 | 62567 | 68013 |
| Nmnat | 1 | 50790 | 50450 |
| Syx13 | 1 | 78927 | 1.19e5 |
| CG42650 | 1 | 72827 | 59463 |
| scb | 1 | 76400 | 73603 |
| CG8945 | 1 | 3.71e5 | 3.28e5 |
| CG8945 | 2 | 3.16e5 | 3.08e5 |
| lok | 1 | 87453 | 48637 |
| Vrp1 | 1 | 89087 | 47153 |
| CREG | 1 | 59310 | 76970 |
| GAPcenA | 1 | 81693 | 72687 |
| CG31265 | 1 | 65960 | 81540 |
| RasGAP1 | 1 | 76463 | 73293 |
| LUBEL | 1 | 22480 | 26437 |
| Rdh1 | 1 | 55283 | 52127 |
| Zfrp8 | 1 | 44363 | 46720 |
| Sfp38D | 1 | 60540 | 44753 |
| by | 1 | 56803 | 62637 |
| ItgaPS5 | 1 | 73383 | 62420 |

Part of the list above, showing only “raw ATP luminescence, replicate 1”:
GAPcenA = 81693
CG31265 = 65960
RasGAP1 = 76463
LUBEL = 22480

More reagents:
| gene | dsRNA no. | raw ATP luminescence, replicate 1 | raw ATP luminescence, replicate 2 |
| --- | --- | --- | --- |
| Tsp42Ei | 1 | 47167 | 76810 |
| CG16970 (retired record) | 1 | 2.95e5 | 3.15e5 |
| CG16970 (retired record) | 2 | 32227 | 49773 |
| CG11656 | 1 | 38037 | 18837 |
| sand | 1 | 42283 | 77607 |
| Hsp60B | 1 | 1.08e5 | 71233 |
| Orc6 | 1 | 34000 | 70727 |
| CG30411 | 1 | 87503 | 88440 |
| ddbt | 1 | 1.57e5 | 1.68e5 |
| Gr5a | 1 | 40600 | 58460 |
| Cyp6a22 | 1 | 59827 | 63270 |
| CG32523 | 1 | 3.20e5 | 3.49e5 |
| CG11449 | 1 | 64997 | 56227 |
| CG42675 | 1 | 48933 | 31207 |
| CG32795 | 1 | 56710 | 40790 |
| CG32795 | 2 | 59390 | 51410 |
| Dyrk2 | 1 | 73223 | 73813 |
| nop5 | 1 | 25093 | 28070 |
| CG33627 | 1 | 89727 | 1.01e5 |
| CG2617 | 1 | 62910 | 67840 |
| Hil | 1 | 58507 | 59663 |
| Bug22 | 1 | 33827 | 53563 |
| CG31928 | 1 | 97133 | 68490 |
| Arr2 | 1 | 70047 | 93553 |
| Spn55B | 1 | 1.76e5 | 1.82e5 |
| CCDC53 | 1 | 39183 | 85767 |
| Ets97D | 1 | 51790 | 38440 |
| Ilp6 | 1 | 41510 | 67220 |
| CG8360 | 1 | 38870 | 69097 |
| CG15027 | 1 | 3.01e5 | 2.79e5 |
| sosie | 1 | 53310 | 56850 |
| CG14770 | 1 | 49030 | 70450 |
